Residue numbers refer to the chain shown, from its start. Numbers in names are those of the source. Results are given in words; binding and its absence hold for the method and conditions named. Some results given as binding are weak or reduced against the parent protein; the word gives no strength.
B1: Hu-125G4A4m-43 (antibody, V domains shown)
VH: QVQLVQSGAEVKKPGSSVKVSCKASGYTFTSYYMHWVRQAPGQGLEWMGYIDPANDYSDYNQNFKDRVTITADKSTRTTYMELTSLRSEDTAVYYCARLGYGQSSPFDYWGQGTTVTVSS
VL: DIQMTQSPSSLSASVGDRVTITCKASQDIHNYLSWFQQKPGKAPKSLIYRAKRLVEGVPSRFSGSGSGQDYTLTISSLQPEDFATYYCLQYDELYTFGQGTRLEIK
notes: Humanized antibody, IgG4 S228P (IgG4P) subtype
B2: Hu-125G4A4m-44 (antibody, V domains shown)
VH: B1 VH
VL: B1 VL with Q3K, S46T, S60L, Y87F
notes: as for B1
B3: Hu-125G4A4m-45 (antibody, V domains shown)
VH: B1 VH with T79A
VL: B1 VL with Q69T
notes: as for B1
B4: Hu-125G4A4m-46 (antibody, V domains shown)
VH: B1 VH with T79A
VL: B1 VL
notes: as for B1
B5: Hu-125G4A4m-47 (antibody, V domains shown)
VH: B1 VH with T79A
VL: B1 VL with Q3K, S46T, S60L, Y87F
notes: as for B1
B6: Hu-125G4A4m-49 (antibody, V domains shown)
VH: B1 VH with V68A, I70L
VL: B1 VL
notes: as for B1
B7: Hu-125G4A4m-50 (antibody, V domains shown)
VH: B1 VH with V68A, I70L
VL: B1 VL with Q3K, S46T, S60L, Y87F
notes: as for B1
B8: humanized antibody HMA02h14-48 (antibody, V domains shown)
VH: B1 VH with V68A, I70L
VL: B1 VL with Q69T
notes: Humanized antibody, IgG4 S228P (IgG4P) subtype; also called Hu-125G4A4m-48; Hu-125G4A4-48

biological target: CD47 on the surface of cynomolgus monkey B cells (cynomolgus monkey); experiment: FACS on cynomolgus monkey B cells

Binder	binding
B1	binds
B2	binds
B3	binds
B4	binds
B5	binds
B6	binds
B7	binds
B8	binds

Reference: patent US20230151110A1 (HUTCHISON MEDIPHARMA, published 2023)
